Paper doi:10.1101/2023.09.29.560113
Results are given in words; binding and its absence hold for the method and conditions named. For some assays here: In cells and extracts the contact can be indirect. Some results given as binding are weak or reduced against the parent protein; the word gives no strength. For some assays here: Sequences can lack the tags named with a protein.

By UniProt entry, the sequences of proteins in these tests, tags left out.
UniProt O04157: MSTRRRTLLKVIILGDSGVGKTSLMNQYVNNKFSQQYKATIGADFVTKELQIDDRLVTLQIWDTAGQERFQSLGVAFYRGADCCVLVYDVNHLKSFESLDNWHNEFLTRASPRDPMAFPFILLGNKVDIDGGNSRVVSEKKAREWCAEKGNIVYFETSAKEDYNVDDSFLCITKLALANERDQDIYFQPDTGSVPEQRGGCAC

T1: NET3A-Cub (Arabidopsis thaliana) (UniProt Q66GR8)
T1 sequence: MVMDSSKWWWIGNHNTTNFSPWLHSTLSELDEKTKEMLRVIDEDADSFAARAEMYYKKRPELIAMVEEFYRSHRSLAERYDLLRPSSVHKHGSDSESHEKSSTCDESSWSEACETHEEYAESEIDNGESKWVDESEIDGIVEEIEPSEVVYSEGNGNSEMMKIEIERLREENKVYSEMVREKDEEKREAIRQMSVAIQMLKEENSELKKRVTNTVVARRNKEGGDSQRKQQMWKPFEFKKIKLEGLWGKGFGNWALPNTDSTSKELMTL

T2: NET3C-Cub (Arabidopsis thaliana) (UniProt O82259)
T2 sequence: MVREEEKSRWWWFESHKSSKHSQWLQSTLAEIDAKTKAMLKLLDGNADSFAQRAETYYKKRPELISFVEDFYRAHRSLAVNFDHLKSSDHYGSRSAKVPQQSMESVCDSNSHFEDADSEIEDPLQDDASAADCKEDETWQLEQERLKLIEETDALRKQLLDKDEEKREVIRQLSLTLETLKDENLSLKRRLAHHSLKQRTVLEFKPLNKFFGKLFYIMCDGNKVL

T3: NET4A-Cub (Arabidopsis thaliana) (UniProt F4KEW8)
T3 sequence: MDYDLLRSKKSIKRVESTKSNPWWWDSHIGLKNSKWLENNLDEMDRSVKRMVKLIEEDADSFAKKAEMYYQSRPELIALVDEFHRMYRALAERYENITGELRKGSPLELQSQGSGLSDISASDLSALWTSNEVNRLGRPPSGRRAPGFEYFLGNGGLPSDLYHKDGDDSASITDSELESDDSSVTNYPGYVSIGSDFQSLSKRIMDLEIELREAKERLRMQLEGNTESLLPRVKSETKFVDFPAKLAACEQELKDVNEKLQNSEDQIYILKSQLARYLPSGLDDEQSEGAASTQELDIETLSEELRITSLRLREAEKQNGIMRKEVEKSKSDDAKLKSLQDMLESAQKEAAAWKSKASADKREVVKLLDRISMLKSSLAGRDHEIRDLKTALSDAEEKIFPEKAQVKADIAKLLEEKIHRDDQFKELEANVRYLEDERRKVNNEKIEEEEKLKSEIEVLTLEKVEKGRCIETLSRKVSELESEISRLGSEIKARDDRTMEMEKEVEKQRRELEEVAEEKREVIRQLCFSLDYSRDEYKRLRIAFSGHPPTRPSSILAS

T4: NET4B-Cub (Arabidopsis thaliana) (UniProt Q84VY2)
T4 sequence: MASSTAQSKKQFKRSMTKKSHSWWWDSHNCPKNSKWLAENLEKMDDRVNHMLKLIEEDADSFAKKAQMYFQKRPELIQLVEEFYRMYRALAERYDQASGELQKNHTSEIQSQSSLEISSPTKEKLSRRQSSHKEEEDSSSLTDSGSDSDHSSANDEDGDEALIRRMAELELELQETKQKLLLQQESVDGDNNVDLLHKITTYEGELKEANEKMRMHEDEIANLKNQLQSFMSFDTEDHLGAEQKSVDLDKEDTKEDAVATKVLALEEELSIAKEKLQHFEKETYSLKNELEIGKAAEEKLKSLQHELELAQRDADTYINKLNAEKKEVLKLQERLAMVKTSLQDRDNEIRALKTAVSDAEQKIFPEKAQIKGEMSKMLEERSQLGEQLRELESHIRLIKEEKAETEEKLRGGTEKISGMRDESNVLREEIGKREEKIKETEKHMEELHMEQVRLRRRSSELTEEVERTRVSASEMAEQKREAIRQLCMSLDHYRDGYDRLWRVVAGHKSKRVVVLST

T5: NET4A, rBiFC fusion (Arabidopsis thaliana) (UniProt F4KEW8)
T5 sequence: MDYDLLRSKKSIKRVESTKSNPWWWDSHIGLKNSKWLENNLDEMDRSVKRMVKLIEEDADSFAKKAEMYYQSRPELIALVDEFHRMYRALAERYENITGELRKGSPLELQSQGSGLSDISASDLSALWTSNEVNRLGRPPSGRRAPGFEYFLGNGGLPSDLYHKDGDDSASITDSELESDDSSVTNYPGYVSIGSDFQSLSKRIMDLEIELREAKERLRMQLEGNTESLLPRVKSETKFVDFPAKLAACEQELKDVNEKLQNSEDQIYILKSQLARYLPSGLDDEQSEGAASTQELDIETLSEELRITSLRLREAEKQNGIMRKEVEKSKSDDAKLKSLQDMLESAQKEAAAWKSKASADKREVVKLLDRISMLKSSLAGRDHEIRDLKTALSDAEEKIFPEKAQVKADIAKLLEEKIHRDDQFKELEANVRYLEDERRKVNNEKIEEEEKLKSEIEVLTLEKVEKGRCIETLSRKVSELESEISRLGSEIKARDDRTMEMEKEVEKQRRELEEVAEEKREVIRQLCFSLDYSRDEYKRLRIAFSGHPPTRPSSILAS


Assays:
[1] = target: T1, NET3A-Cub (Arabidopsis thaliana); experiment: two-hybrid
[2] = target: T2, NET3C-Cub (Arabidopsis thaliana); experiment: two-hybrid
[3] = target: T3, NET4A-Cub (Arabidopsis thaliana); experiment: two-hybrid
[4] = target: T4, NET4B-Cub (Arabidopsis thaliana); experiment: two-hybrid
[5] = target: T5, NET4A, rBiFC fusion (Arabidopsis thaliana); experiment: split reporter

binding [1]	binding [2]	binding [3]	binding [4]	binding [5]	Molecule
binds	binds	binds	binds	–	NubG-RABG3B (from UniProt O04157 1-203)
–	–	–	–	binds	RABG3B, rBiFC fusion (from UniProt O04157 1-203)
–	–	binds	–	–	RABC1, mbSUS fusion (protein, UniProt O23657 1-212) MGSSSGQPEFDYLFKVLLIGDSGVGKSSLLLSFTSNTFDDLSPTIGVDFKVKYLTIGEKKLKLAIWDTAGQERFRTLTSSYYRGAQGIIMVYDVTRRDTFTNLSDIWAKEIDLYSTNQDCIKMLVGNKVDKESERAVSKKEGIDFAREYGCLFLECSAKTRVNVEQCFEELVLKILETPSLTAEGSSGGKKNIFKQNPAQTTSTSSSYCCSS
–	–	–	–	binds	RABC1, rBiFC fusion (protein, UniProt O23657 1-212) MGSSSGQPEFDYLFKVLLIGDSGVGKSSLLLSFTSNTFDDLSPTIGVDFKVKYLTIGEKKLKLAIWDTAGQERFRTLTSSYYRGAQGIIMVYDVTRRDTFTNLSDIWAKEIDLYSTNQDCIKMLVGNKVDKESERAVSKKEGIDFAREYGCLFLECSAKTRVNVEQCFEELVLKILETPSLTAEGSSGGKKNIFKQNPAQTTSTSSSYCCSS
–	–	binds	binds	–	NubG-VAP27-1 (protein, UniProt Q8VZ95 1-256) MSNIDLIGMSNRDLIGMSNSELLTVEPLDLQFPFELKKQISCSLYLTNKTDNNVAFKVKTTNPKKYCVRPNTGVVLPRSTCEVLVTMQAQKEAPSDMQCKDKFLLQGVIASPGVTAKEVTPEMFSKEAGHRVEETKLRVTYVAPPRPPSPVHEGSEEGSSPRASVSDNGHGSEFSFERFIVDNKAGHQENTSEARALITKLTEEKQSAIQLNNRLQRELDQLRRESKKSQSGGIPFMYVLLVGLIGLILGYIMKRT
binds	binds	binds	binds	–	NubG-RABG3A (protein, UniProt Q948K8 1-206) MATRRRTLLKVIVLGDSGVGKTSLMNQYVHKKFSMQYKATIGADFVTKELQIGEKLVTLQIWDTAGQERFQSLGAAFYRGADCCALVYDVNVLRSFDNLETWHEEFLKQASPSDPKTFPFIVLGNKIDVDGGSSRVVSDKKAADWCASNGNIPYFETSAKDDFNVDEAFLTIAKTALANEHEQDIYFQGIPDAVTENEPKGGGCAC
–	–	–	–	binds	RABG3A, rBiFC fusion (protein, UniProt Q948K8 1-206) MATRRRTLLKVIVLGDSGVGKTSLMNQYVHKKFSMQYKATIGADFVTKELQIGEKLVTLQIWDTAGQERFQSLGAAFYRGADCCALVYDVNVLRSFDNLETWHEEFLKQASPSDPKTFPFIVLGNKIDVDGGSSRVVSDKKAADWCASNGNIPYFETSAKDDFNVDEAFLTIAKTALANEHEQDIYFQGIPDAVTENEPKGGGCAC
